{"source": "PubChem BioAssay AID504648", "about": "(National Center for Advancing Translational Sciences (NCATS), 2011)", "note": "In all, about 390,000 compounds went through this assay and about 610 (0.16%) were called active. Inconclusive means that the source gave no clear call. Such entries were picked first, then a sample of the others. Calls come from the whole dose curve; as a rule, active = well fitted inhibition curve with a large enough effect; inconclusive = small, poorly fitted or top-dose-only effect, or effect the other way, or another doubt; inactive = no such curve, though single readings can be large or run the other way. A potency beside an inconclusive call is a rough fit, not a confirmed value. Potency is the fitted concentration of half-maximal effect."}
{"test": "Nrf2 qHTS screen for inhibitors: counterscreen for cytotoxicity", "conditions": "A549 ARE-Fluc cells, CellTiter-Fluor viability, 18-24 h; series mostly up to 46 µM", "in_short": "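A549 ARE_Fluc cells in 5% FBS OPTI-MEM were exposed to compounds in concentration-response for 18-24 h at 37 deg C. Viability was read by CellTiter-Fluor fluorescence (Ex 405/Em 525) after 30 min, before the luciferase read.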"}
{"smiles": "COc1ccc(C2Nc3ccccc3C(=O)N2Cc2ccco2)cc1COc1ccccc1F", "note": "(configuration not stated)", "Potency": "inactive"}
{"smiles": "Cc1ccc2cc(CN(CCN(C)C)C(=O)Nc3ccc(Cl)cc3)c(=O)[nH]c2c1", "Potency": "inconclusive: 32.6 µM [falling, partial curve, poor fit]"}
{"smiles": "O=C1CC(/C=C/c2ccco2)=Nc2ccccc2N1", "Potency": "inconclusive: 2.91 µM [activator, partial curve, poor fit]"}
{"smiles": "O=C(Nc1cccc(-c2nnc(-c3ccccc3)o2)c1)c1ccc(Br)o1", "Potency": "inconclusive: 29.1 µM [falling, single point]"}
{"smiles": "CSc1ncccc1C(=O)OCC(=O)NCc1ccc2c(c1)OCO2", "Potency": "inconclusive: 29.1 µM [activator, single point]"}
{"smiles": "Cc1cccc(NC(=O)Cn2nc(C(F)(F)F)cc2C2CC2)c1", "Potency": "inconclusive: 25.9 µM [falling, single point]"}
{"smiles": "CCN(CC)c1ccc2cc(-c3nc4ccccc4[nH]3)c(=O)oc2c1", "Potency": "inconclusive: 1.64 µM [activator, full curve, poor fit]"}
{"smiles": "C=CCSC1=C(C#N)C(c2ccccc2C)CC(=O)N1", "note": "(configuration not stated)", "Potency": "inactive"}
{"smiles": "COc1ccc(-c2ccc(=O)n(Cc3cccc([N+](=O)[O-])c3)n2)cc1", "Potency": "inactive"}
{"smiles": "COc1cc(CN2CCN(C(O)(c3ccccc3)c3ccccc3)CC2)cc(OC)c1OC", "Potency": "inconclusive: 25.9 µM [falling, partial curve, poor fit]"}
{"smiles": "COc1ccc(C(=O)O/N=C(\\N)Cc2cccs2)cc1OC", "Potency": "inconclusive: 20.6 µM [falling, partial curve]"}
{"smiles": "CC12CCC(=O)C=C1CCC1C2CCC2(C)C(c3csc(N)n3)CCC12", "note": "(configuration not stated)", "Potency": "inconclusive: 29.1 µM [falling, single point]"}
{"smiles": "COc1ccc(CNC(=O)CSc2n[nH]c(-c3ccc(OC)cc3)n2)cc1", "Potency": "inconclusive: 11.6 µM [falling, partial curve, poor fit]"}
{"smiles": "COC(=O)c1cc(=O)n(-c2ccc(F)cc2)c(=Nc2ccc(F)cc2)s1", "Potency": "inconclusive: 25.9 µM [falling, single point]"}
{"smiles": "CC1CN(S(=O)(=O)c2cccc(C(=O)Nc3cc(Cl)ccc3N3CCOCC3)c2)CC(C)O1", "note": "(configuration not stated)", "Potency": "inconclusive: 32.6 µM [activator, partial curve, poor fit]"}
{"smiles": "Cc1ccccc1-c1nc(CS(=O)(=O)CC(=O)Nc2cc(Cl)cc(Cl)c2)c(C)o1", "Potency": "inconclusive: 29.1 µM [falling, single point]"}
{"smiles": "Cc1ccc(OCC(=O)Nc2ccc(S(=O)(=O)N3CCOCC3)cc2)c(Br)c1", "Potency": "inconclusive: 18.4 µM [falling, single point]"}
{"smiles": "CC(O)CNc1cc(N)c([N+](=O)[O-])cc1[N+](=O)[O-]", "note": "(configuration not stated)", "Potency": "inconclusive: 20.6 µM [falling, partial curve]"}
{"smiles": "Cc1ccc(F)cc1NC(=O)/C=C/c1ccc(S(=O)(=O)N2CCOCC2)cc1", "Potency": "inactive"}
{"smiles": "COCCCn1c(C(=O)N2CC(C)OC(C)C2)cc2c(=O)n3ccccc3nc21", "note": "(configuration not stated)", "Potency": "inconclusive: 25.9 µM [activator, partial curve, poor fit]"}
{"smiles": "Cc1cccc2sc(N(CCCN(C)C)C(=O)CN3C(=O)c4ccccc4C3=O)nc12", "Potency": "inconclusive: 29.1 µM [falling, single point]"}
{"smiles": "CNc1oc(-c2ccc(F)cc2)nc1S(=O)(=O)c1ccccc1", "Potency": "inactive"}
{"smiles": "CC(C)(C)c1ccc(C(=O)NCC2CCCN2S(=O)(=O)c2ccccc2)cc1", "note": "(configuration not stated)", "Potency": "inactive"}
{"smiles": "Cc1cc(C)c(NC(=O)Cn2c(=O)nc(-c3ccccc3)c3cc(Cl)ccc32)c(C)c1", "Potency": "inconclusive: 29.1 µM [falling, single point]"}
{"smiles": "O=C(N/N=C/c1sc2ccccc2c1O)c1cccc2ccccc12", "Potency": "inconclusive: 18.4 µM [falling, partial curve, poor fit]"}
{"smiles": "COc1ccccc1OCCCOc1c(Cl)cc(C)cc1Cl", "Potency": "inconclusive: 9.2 µM [activator, partial curve, poor fit]"}
{"smiles": "Cc1ccc(Nc2nc(CSc3nnc(-c4ccc(F)cc4)n3C)cs2)cc1", "Potency": "inactive"}
{"smiles": "O=C(COc1ccccc1F)Nc1nc(-c2ccccn2)cs1", "Potency": "inconclusive: 14.6 µM [falling, partial curve, poor fit]"}
{"smiles": "CC(C)=NNc1cc([N+](=O)[O-])cc2c1C(=O)N(C)S2=O", "note": "(configuration not stated)", "Potency": "inactive"}
{"smiles": "O=C(N/N=C/c1ccc[nH]1)c1cc(-c2ccc(Cl)cc2)nc2ccccc12", "Potency": "inconclusive: 29.1 µM [falling, single point]"}
{"smiles": "Cc1nn(C(=O)c2cccc([N+](=O)[O-])c2)c(C)c1Br", "Potency": "inactive"}
{"smiles": "C/C(=N\\O)c1c(O)cc(-c2ccccc2)n(-c2ccccc2)c1=O", "Potency": "inactive"}
{"smiles": "Cc1ccc(NC(=O)c2sc3nc[nH]c(=O)c3c2C)cc1Cl", "Potency": "inconclusive: 23.1 µM [falling, single point]"}
{"smiles": "Cc1ccc2nc(-c3cc(-c4ccccc4)no3)cn2c1", "Potency": "inactive"}
{"smiles": "CCNc1ccc(Br)cc(C(=O)/C=C/c2ccc3c(c2)OCO3)c1=O", "Potency": "inactive"}
{"smiles": "Cc1ccc(C(=O)/C=C/c2ccc(-c3ccc(C)cc3)o2)cc1", "Potency": "inactive"}
{"smiles": "Cn1nc(C(=O)NCc2ccc(F)cc2)c2c1-c1ccccc1S(=O)(=O)C2", "Potency": "inactive"}
{"smiles": "O=C(Nc1ccc2nn(-c3ccccc3)nc2c1)c1ccc(Br)o1", "Potency": "inconclusive: 18.4 µM [falling, single point]"}
{"smiles": "C=Cn1cc[n+](CC(=O)c2ccc(Cl)c(Cl)c2)c1", "Potency": "inactive"}
{"smiles": "CS(=O)(=O)c1ccc(C(=O)OCC(=O)NCc2cccs2)cc1[N+](=O)[O-]", "Potency": "inconclusive: 32.6 µM [falling, partial curve, poor fit]"}
{"smiles": "COC(=O)c1cc(Cl)c(NS(=O)(=O)c2ccccc2)cc1OC", "Potency": "inconclusive: 25.9 µM [falling, partial curve, poor fit]"}
{"smiles": "COc1ccc(-c2csc3ncnc(N4CCN(c5cccc(OC)c5)CC4)c23)cc1", "Potency": "inactive"}
{"smiles": "CCOC(=O)c1ccc(NS(=O)(=O)c2ccc(SC)cc2)cc1", "Potency": "inconclusive: 4.11 µM [falling, single point]"}
{"smiles": "COc1ccc(NS(=O)(=O)c2ccc3oc(=O)c4[nH]c(=O)c(=O)n(C)c4c3c2)cc1", "Potency": "inconclusive: 0.0052 µM [activator, full curve, poor fit]"}
{"smiles": "O=C(Nc1ccc(OCC(F)(F)C(F)F)c(C(F)(F)F)c1)c1ccc(Cl)cc1", "Potency": "inconclusive: 29.1 µM [falling, single point]"}
{"smiles": "O=c1ccc(-c2ccccc2)no1", "Potency": "inconclusive: 18.4 µM [falling, partial curve, poor fit]"}
{"smiles": "COc1ccc(/C=N/NC(=O)c2ccco2)cc1Cn1nc(C)c([N+](=O)[O-])c1C", "Potency": "inconclusive: 14.6 µM [falling, single point]"}
{"smiles": "O=c1cc(-c2ccc(O)c(O)c2)oc2cc(O)c([C@@H]3O[C@H](CO)[C@@H](O)[C@H](O)[C@H]3O)c(O)c12", "Potency": "inconclusive: 13 µM [falling, partial curve, poor fit]"}
{"smiles": "COc1ccc(-n2c(-c3ccc(C)cc3)cc3c2CC(C)(C)CC3=O)c(OC)c1", "Potency": "inconclusive: 18.4 µM [falling, single point]"}
{"smiles": "COC(=O)c1sccc1NC(=O)c1csc(C)c1", "Potency": "inconclusive: 20.6 µM [falling, single point]"}
{"smiles": "Cc1ccc2c(c1)C(=O)C(=O)N2CCCOc1ccccc1", "Potency": "inactive"}
{"smiles": "Cc1ccc(S(=O)(=O)NC(CC(C)C)C(=O)N2CCC(C)CC2)cc1", "note": "(configuration not stated)", "Potency": "inconclusive: 3.66 µM [falling, partial curve, poor fit]"}
{"smiles": "CN1CCN(c2nc(Nc3ccc(O)cc3)nc3ccccc23)CC1", "Potency": "inconclusive: 23.1 µM [falling, single point]"}
{"smiles": "OCCN(CCO)CC(O)COc1ccc(Br)cc1", "note": "(configuration not stated)", "Potency": "inconclusive: 13 µM [activator, partial curve, poor fit]"}
{"smiles": "O=c1oc2cc(O)ccc2cc1-c1nnc(Nc2ccccc2F)s1", "Potency": "inconclusive: 20.6 µM [activator, partial curve]"}
{"smiles": "C(=N\\N(Cc1ccccc1)c1ccccc1)/c1cccnc1", "Potency": "inactive"}
{"smiles": "Cc1ccc(CNC(=O)CSc2nc3c(sc4ccccc43)c(=O)n2CCCN2CCCC2)cc1", "Potency": "inconclusive: 25.9 µM [falling, single point]"}
{"smiles": "Cc1cccc(N2CCN(C(=O)c3ccc4[nH]c(C)c(C)c4c3)CC2)c1C", "Potency": "inconclusive: 18.4 µM [falling, single point]"}
{"smiles": "O=C(N/N=C/c1c[nH]c2ccc(Br)cc12)c1ccn(Cc2ccc(Cl)cc2Cl)n1", "Potency": "inconclusive: 18.4 µM [falling, partial curve, poor fit]"}
{"smiles": "Cc1cc(SCC(=O)NC2CC2)nc2ccccc12", "Potency": "inactive"}
{"smiles": "CCN1C(c2ccccc2)=C(c2ccccc2)S/C1=C/C=C1\\SC(=S)N(C)C1=O", "Potency": "inconclusive: 29.1 µM [falling, single point]"}
{"smiles": "COc1ccccc1CNC(=O)C1CCN(S(=O)(=O)c2ccc3c(ccn3C)c2)CC1", "Potency": "inactive"}
{"smiles": "O=[N+]([O-])c1cccnc1N1CCC(c2cc(-c3cccc(C(F)(F)F)c3)n[nH]2)CC1", "Potency": "inconclusive: 23.1 µM [falling, partial curve]"}
{"smiles": "CCN1/C(=C/c2ccc3ccccc3[n+]2CC)C=Cc2ccccc21", "Potency": "active: 9.2 µM"}
{"smiles": "Cc1cccc(OCC(O)Cn2c(=N)n(CCN3CCCCC3)c3ccccc32)c1", "note": "(configuration not stated)", "Potency": "inconclusive: 25.9 µM [falling, single point]"}
{"smiles": "CCN1CCN(C(=O)CCCn2c(C)c3cnn(-c4ccccc4)c(=O)c3c2C)CC1", "Potency": "inconclusive: 0.291 µM [activator, full curve, poor fit]"}
{"smiles": "CCCCCCCCCC[N+](C)(C)CC/C=C1/c2ccccc2Sc2ccc(Cl)cc21", "Potency": "inactive"}
